Test system: calcineurin
Assay: Calcineurin inhibition assay on whole blood lysates, PK-PD sigmoid Emax model (Study A, phase II)
Type: in vivo, human
Conditions: FIG. 3A/3B; day 7 of the 12 week trial

C/C=C/C[C@@H](C)[C@@H](O)[C@H]1C(=O)N[C@@H](CC)C(=O)N(C)CC(=O)N(C)[C@@H](CC(C)C)C(=O)N[C@@H](C(C)C)C(=O)N(C)[C@@H](CC(C)C)C(=O)N[C@@H](C)C(=O)N[C@H](C)C(=O)N(C)[C@@H](CC(C)C)C(=O)N(C)[C@@H](CC(C)C)C(=O)N(C)[C@@H](C(C)C)C(=O)N1C [cyclosporin A, reference compound]
correlation (R) between trough concentration (C0) and Emax: no measurable correlation

Source: patent US20060014677A1, “Method for maximizing efficacy and predicting and minimizing toxicity of calcineurin inhibitor compounds” (Isotechnika International Inc., priority 2004, published 2006)
